The list shows a part of the results.
Assays:
Experiment in all cases: glycan array binding signal (z-score within array); higher = stronger binding
Settings in all cases: glycan notation: IUPAC condensed, linker removed
[1] = biological target: GlcNAc(b1-4)GlcNAc(b1-4)GlcNAc(b1-4)GlcNAc(b1-4)GlcNAc(b1-4)GlcNAc
How it was run: (§1)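 From the Consortium for Functional Glycomics database, 3228 arrays were curated, keeping only those whose protein sequence was available. Binding is given as a within-array Z-score averaged across arrays sharing a protein sequence and across linkers. Negative Z-scores can be read as non-binding.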

[2] = biological target: GlcNAc(b1-4)[GlcNAc(b1-6)]GalNAc
How it was run: as §1

[3] = biological target: GlcNAc(b1-6)Gal(b1-4)GlcNAc
How it was run: as §1

GlcNAc(b1-6)GalNAc = biological target: GlcNAc(b1-6)GalNAc
How it was run: as §1

[4] = biological target: GlcNAc6S(b1-3)Gal(b1-4)GlcNAc
How it was run: as §1

Kdn(a2-3)Gal(b1-3)GalNAc = biological target: Kdn(a2-3)Gal(b1-3)GalNAc
How it was run: as §1

Kdn(a2-3)Gal(b1-3)GlcNAc = biological target: Kdn(a2-3)Gal(b1-3)GlcNAc
How it was run: as §1

Kdn(a2-3)Gal(b1-4)Glc = biological target: Kdn(a2-3)Gal(b1-4)Glc
How it was run: as §1

Kdn(a2-3)Gal(b1-4)GlcNAc = biological target: Kdn(a2-3)Gal(b1-4)GlcNAc
How it was run: as §1

[5] = biological target: Kdn(a2-3)Gal(b1-4)[Fuc(a1-3)]GlcNAc
How it was run: as §1

Kdn(a2-6)Gal(b1-4)GlcNAc = biological target: Kdn(a2-6)Gal(b1-4)GlcNAc
How it was run: as §1

[6] = biological target: Man(a1-2)Man(a1-2)Man(a1-3)Man
How it was run: as §1

[7] = biological target: Man(a1-2)Man(a1-2)Man(a1-6)[Man(a1-3)]Man
How it was run: as §1

Man(a1-2)Man(a1-3)Man = biological target: Man(a1-2)Man(a1-3)Man
How it was run: as §1

[8] = biological target: Man(a1-2)Man(a1-3)[Man(a1-2)Man(a1-6)]Man
How it was run: as §1

[9] = biological target: Man(a1-2)Man(a1-3)[Man(a1-2)Man(a1-6)]Man(a1-6)[Man(a1-2)Man(a1-2)Man(a1-3)]Man
How it was run: as §1

[10] = biological target: Man(a1-2)Man(a1-3)[Man(a1-2)Man(a1-6)]Man(a1-6)[Man(a1-2)Man(a1-2)Man(a1-3)]Man(b1-4)GlcNAc(b1-4)GlcNAc
How it was run: as §1

[11] = biological target: Man(a1-2)Man(a1-3)[Man(a1-6)]Man(a1-6)[Man(a1-2)Man(a1-3)]Man(b1-4)GlcNAc(b1-4)GlcNAc
How it was run: as §1

[12] = biological target: Man(a1-2)Man(a1-6)[Man(a1-3)]Man(a1-6)[Man(a1-2)Man(a1-2)Man(a1-3)]Man
How it was run: as §1

[13] = biological target: Man(a1-2)Man(a1-6)[Man(a1-3)]Man(a1-6)[Man(a1-2)Man(a1-2)Man(a1-3)]Man(b1-4)GlcNAc(b1-4)GlcNAc
How it was run: as §1

Man(a1-3)[Man(a1-6)]Man = biological target: Man(a1-3)[Man(a1-6)]Man
How it was run: as §1

[14] = biological target: Man(a1-3)[Man(a1-6)]Man(a1-6)[Man(a1-2)Man(a1-3)]Man(b1-4)GlcNAc(b1-4)GlcNAc
How it was run: as §1

[15] = biological target: Man(a1-3)[Man(a1-6)]Man(a1-6)[Man(a1-3)]Man
How it was run: as §1

[16] = biological target: Man(a1-3)[Man(a1-6)]Man(a1-6)[Man(a1-3)]Man(b1-4)GlcNAc(b1-4)GlcNAc
How it was run: as §1

[17] = biological target: Man(a1-3)[Man(a1-6)]Man(b1-4)GlcNAc(b1-4)GlcNAc
How it was run: as §1

[18] = biological target: Man(a1-3)[Man(a1-6)]Man(b1-4)GlcNAc(b1-4)[Fuc(a1-6)]GlcNAc
How it was run: as §1

Man(a1-6)Man = biological target: Man(a1-6)Man
How it was run: as §1

Man(b1-4)GlcNAc = biological target: Man(b1-4)GlcNAc
How it was run: as §1

MurNAc(b1-4)GlcNAc = biological target: MurNAc(b1-4)GlcNAc
How it was run: as §1

Neu5Ac(a2-3)Gal = biological target: Neu5Ac(a2-3)Gal
How it was run: as §1

[19] = biological target: Neu5Ac(a2-3)Gal(b1-3)GalNAc
How it was run: as §1

[20] = biological target: Neu5Ac(a2-3)Gal(b1-3)GalNAc(b1-3)Gal(a1-4)Gal(b1-4)Glc
How it was run: as §1

[21] = biological target: Neu5Ac(a2-3)Gal(b1-3)GalNAc(b1-4)[Neu5Ac(a2-3)]Gal(b1-4)Glc
How it was run: as §1

[22] = biological target: Neu5Ac(a2-3)Gal(b1-3)GalNAc(b1-4)[Neu5Ac(a2-8)Neu5Ac(a2-3)]Gal(b1-4)Glc
How it was run: as §1

[23] = biological target: Neu5Ac(a2-3)Gal(b1-3)GalNAc6S
How it was run: as §1

[24] = biological target: Neu5Ac(a2-3)Gal(b1-3)GlcNAc
How it was run: as §1

[25] = biological target: Neu5Ac(a2-3)Gal(b1-3)GlcNAc(b1-2)Man
How it was run: as §1

B1: SspB A3vp1 (Streptococcus gordonii), Q54186 (protein)
chain: MTNEADYQAKLAAYQTELARVQKANADAKATYEKAVEDNKAKNAAIKAENEEIKQRNAVAKTDYEAKLAKYEADLAKYKKEFAAYTAALAEAESKKKQDGYLSEPRSQSLNFKSEPNAIRTIDSSVHQYGQQELDALVKSWGISPTNPDRKKSRAYSYFNAINSNNTYAKLVLEKDKPVDVTYTGLKNSSFNGKKISKVVYTYTLKETGFNDGTKMTMFASSDPTVTAWYNDYFTSTNINVKVKFYDEEGQLMNLTGGLVNFSSLNRGNGSGAIDKDAIESVRNFNGRYIPISGSSIKIHENNSAYADSSNAEKSLGARWNTSEWDTTSSPNNWYGAIVGEITQSEISFNMASSKSGNIWFAFNSNINAIGVPTKPVAPTAPTQPMYETEKPLEPAPVAPSYENEPTPPVKTPDQPEPSKPAAALEHHHHHH
**Q.** Which “glycan array binding signal (z-score)” value [1] does the source give for B1 here?
**A.** -1.04

**Q.** And the “glycan array binding signal (z-score)” value [2]?
**A.** -0.89

**Q.** What about the “glycan array binding signal (z-score)” value [3] of the same binder?
**A.** 0.555

**Q.** And the “glycan array binding signal (z-score)” value (GlcNAc(b1-6)GalNAc)?
**A.** 0.064

**Q.** And the “glycan array binding signal (z-score)” value [4]?
**A.** 0.424

**Q.** What about the “glycan array binding signal (z-score)” value (Kdn(a2-3)Gal(b1-3)GalNAc) of the same binder?
**A.** 0.874

**Q.** What about the “glycan array binding signal (z-score)” value (Kdn(a2-3)Gal(b1-3)GlcNAc) of the same binder?
**A.** -0.933

**Q.** What about the “glycan array binding signal (z-score)” value (Kdn(a2-3)Gal(b1-4)Glc) of the same binder?
**A.** 1.1

**Q.** What about the “glycan array binding signal (z-score)” value (Kdn(a2-3)Gal(b1-4)GlcNAc) of the same binder?
**A.** -0.659

**Q.** And the “glycan array binding signal (z-score)” value [5]?
**A.** 1.01

**Q.** And the “glycan array binding signal (z-score)” value (Kdn(a2-6)Gal(b1-4)GlcNAc)?
**A.** 0.128

**Q.** And the “glycan array binding signal (z-score)” value [6]?
**A.** -0.389

**Q.** And the “glycan array binding signal (z-score)” value [7]?
**A.** -0.421

**Q.** And the “glycan array binding signal (z-score)” value (Man(a1-2)Man(a1-3)Man)?
**A.** -0.953

**Q.** And the “glycan array binding signal (z-score)” value [8]?
**A.** -0.889

**Q.** What about the “glycan array binding signal (z-score)” value [9] of the same binder?
**A.** -0.554

**Q.** What about the “glycan array binding signal (z-score)” value [10] of the same binder?
**A.** 0.39

**Q.** And the “glycan array binding signal (z-score)” value [11]?
**A.** -0.444

**Q.** And the “glycan array binding signal (z-score)” value [12]?
**A.** -0.366

**Q.** And the “glycan array binding signal (z-score)” value [13]?
**A.** -0.444

**Q.** What about the “glycan array binding signal (z-score)” value (Man(a1-3)[Man(a1-6)]Man) of the same binder?
**A.** -0.769

**Q.** What about the “glycan array binding signal (z-score)” value [14] of the same binder?
**A.** 0.818

**Q.** And the “glycan array binding signal (z-score)” value [15]?
**A.** -0.128

**Q.** What about the “glycan array binding signal (z-score)” value [16] of the same binder?
**A.** 0.611

**Q.** What about the “glycan array binding signal (z-score)” value [17] of the same binder?
**A.** -0.826

**Q.** What about the “glycan array binding signal (z-score)” value [18] of the same binder?
**A.** -0.528

**Q.** And the “glycan array binding signal (z-score)” value (Man(a1-6)Man)?
**A.** -0.025

**Q.** What about the “glycan array binding signal (z-score)” value (Man(b1-4)GlcNAc) of the same binder?
**A.** -0.983

**Q.** And the “glycan array binding signal (z-score)” value (MurNAc(b1-4)GlcNAc)?
**A.** -0.658

**Q.** And the “glycan array binding signal (z-score)” value (Neu5Ac(a2-3)Gal)?
**A.** -0.167

**Q.** What about the “glycan array binding signal (z-score)” value [19] of the same binder?
**A.** -1.1

**Q.** What about the “glycan array binding signal (z-score)” value [20] of the same binder?
**A.** -0.496

**Q.** And the “glycan array binding signal (z-score)” value [21]?
**A.** 0.149

**Q.** And the “glycan array binding signal (z-score)” value [22]?
**A.** 0.141

**Q.** What about the “glycan array binding signal (z-score)” value [23] of the same binder?
**A.** -0.287

**Q.** And the “glycan array binding signal (z-score)” value [24]?
**A.** -0.907

**Q.** What about the “glycan array binding signal (z-score)” value [25] of the same binder?
**A.** 0.479
